Assay results reported in PubChem BioAssay AID2685 (National Center for Advancing Translational Sciences (NCATS), 2010).
This is one part of the list. Further columns of the screen follow, without active or inactive calls. Compounds called inactive in the main read-out are mostly missing here. Potencies come from curve fits of mixed quality, noted in brackets.

Test: qHTS Assay for Lipid Storage Modulators in Drosophila S3 Cells;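 on cell number change: cells counted by Cell Tracker Red CMTPX staining in the red channel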
Conditions: BODIPY lipid droplet fluorescence, 18-24 h; for cell number change: measured here: cell count max response, cells fed with added oleic acid
In short: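 Drosophila S3 cells loaded with oleic acid (400 uM, as added) and compounds at several concentrations; lipid droplets imaged by 488-nm laser-scanning cytometry, 500–530 nm intensity and object ratio to cell channel. Percent activity normalized to 20 uM Triacsin C.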

[1] = measured here: lipid fluorescence (Fed channel) AC50, cells fed with added oleic acid
[2] = measured here: cell number channel AC50, cells fed with added oleic acid

SMILES	cell number change [%]	AC50 [1]	AC50 [2]
Cc1nc2nc(SCc3ccc([N+](=O)[O-])cc3)[nH]c2cc1Br	20.9		
O=C(Nc1cccc2ncccc12)c1ccccc1Cl	-9.52	14.6 µM [rising, partial curve, poor fit]	
NC(=O)NCc1ccccc1F	-11.8	2.91 µM [falling, full curve]	
CC1CN(C(=S)NC(=O)C2CCCCC2)CC(C)O1 (centres undefined)	-1.23	32.6 µM [falling, single point]	
C/C(=N\NC(=O)Cn1ccc(C(F)(F)F)n1)c1ccco1	-16.8		
O=C(O)c1cccc(CSc2nc(-c3ccccc3)cc(C(F)(F)F)n2)c1	22.8	29.1 µM [rising, single point]	
CCOc1ccc(Nc2ccc(S(=O)(=O)N3CCN(C)CC3)cc2[N+](=O)[O-])cc1OCC	-30.4	0.731 µM [rising, single point]	29.1 µM [falling, partial curve]
CCCCNS(=O)(=O)c1ccc(NS(=O)(=O)c2c(C)cc(C)cc2C)cc1	59.4	0.00461 µM [rising, full curve, poor fit]	16.4 µM [rising, single point]
CCOc1ccc(S(=O)(=O)NCCC(=O)NCC(c2ccc(F)cc2)N2CCOCC2)cc1 (centres undefined)	30.9		9.2 µM [rising, partial curve, poor fit]
Cc1ccc(NS(=O)(=O)c2ccc(C(=O)NCC(c3ccco3)N3CCCCC3)cc2)cc1 (centres undefined)	178		14.6 µM [rising, partial curve]
NC(=O)/C(=C/c1ccc2c(c1)OCO2)NC(=O)c1ccco1	0.279	10.3 µM [rising, partial curve, poor fit]	
O=c1c2[nH]c3ccc(F)cc3c2ncn1CCC1=CCCCC1	5.03	3.26 µM [rising, partial curve]	
O=C(CCN1C(=O)S/C(=C\c2ccccc2)C1=O)N1CCCCC1	-5.13		
CC(=O)c1c(C(C)=O)c(C)n(Cc2ccc(Cl)cc2)c1C	2.07		
Cc1cc(C)cc(S(=O)(=O)c2cnc3ccccc3n2)c1	17.1		0.00461 µM [rising, full curve, poor fit]
COc1cccc(CC(=O)OCC(=O)N(C)CC(=O)Nc2ccc(F)cc2)c1	-32.5	29.1 µM [falling, single point]	3.66 µM [falling, partial curve, poor fit]
CCCc1nn2c(=O)cc(CSCC(=O)Nc3nnc(C(C)C)s3)nc2s1	40.8	29.1 µM [rising, single point]	7.31 µM [rising, partial curve]

Single records, from the list above:
CC1CN(C(=S)NC(=O)C2CCCCC2)CC(C)O1 (centres undefined) in the list: cell number change [%]: -1.23; AC50 [1]: 32.6 µM [falling, single point]
Cc1ccc(NS(=O)(=O)c2ccc(C(=O)NCC(c3ccco3)N3CCCCC3)cc2)cc1 (centres undefined) in the list: cell number change [%]: 178; AC50 [2]: 14.6 µM [rising, partial curve]
